Among the data in publication PMC5358892 are binding values, retold here.

These are yes or no findings as the source states them, for the method shown. Some results given as binding are weak or reduced against the parent protein; the word gives no strength.

For the assay, the target named is T1, endogenous IRF3 (L929 cells) (mouse (endogenous in L929)), P70671.
T1 chain: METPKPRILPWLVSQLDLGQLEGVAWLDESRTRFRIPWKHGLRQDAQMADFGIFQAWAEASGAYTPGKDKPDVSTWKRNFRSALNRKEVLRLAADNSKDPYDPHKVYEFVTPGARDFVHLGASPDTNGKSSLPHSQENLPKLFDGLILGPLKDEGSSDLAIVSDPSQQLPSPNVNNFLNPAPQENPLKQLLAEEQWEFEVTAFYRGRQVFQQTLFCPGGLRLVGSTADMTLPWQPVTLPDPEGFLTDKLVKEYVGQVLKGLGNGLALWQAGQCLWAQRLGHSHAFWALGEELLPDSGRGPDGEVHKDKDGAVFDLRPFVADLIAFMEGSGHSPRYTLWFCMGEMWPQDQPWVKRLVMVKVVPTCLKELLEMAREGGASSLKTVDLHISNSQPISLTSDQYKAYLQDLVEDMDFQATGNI
Nature of the assay: native gel or EMSA; native PAGE of extracts of L929 cells (control or Rnf185 siRNA) treated with HT-DNA, poly(I:C) or cGAMP, immunoblot for IRF3 dimerization. The following applies: remark: other sources report otherwise. On the technique in general: In EMSA bound probe runs differently from free probe, usually more slowly.

B1: endogenous IRF3 (L929 cells), P70671 1-419 (protein)
chain: T1 chain
As to B1, the binding result is listed as “binds”.
